# This is one part of the list. Further columns of the screen follow, without active or inactive calls. The list favours compounds with an active or inconclusive main result. Potencies come from curve fits of mixed quality, noted in brackets.
# Assay: Cell signaling CRE-BLA (Fsk stim)
# Conditions: CHO CRE-bla reporter (cAMP response element driving beta-lactamase), forskolin EC10, beta-lactamase ratio; measured here: 460 nm blue channel
# Summary of the method: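 CHO CRE-bla cells, overnight plating in Opti-MEM with 0.5% dialyzed FBS; cpd titration + EC10 NKH 477, 3 h 37 °C; CCF4 2 h RT; ex 405/em 460 vs 530 ratio → %Activity, AC50.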
row,SMILES,AC50
1,COCCNC(=O)c1cc2c(-c3ccccc3F)nn(C)c2s1,"6.31 µM [rising, partial curve]"
2,COc1cc(NC(=O)c2ccc3c(=O)n(Cc4ccco4)c(=S)[nH]c3c2)cc(OC)c1OC,"0.501 µM [falling, partial curve]"
3,CCNc1nc(NC(C)(C)C)nc(SC(C(C)=O)C(C)=O)n1,"12.6 µM [rising, partial curve]"
4,O=C(Cn1nnc(-c2ccccc2F)n1)Nc1cccc2ncccc12,"0.00398 µM [falling, full curve, poor fit]"
5,O=C(Nc1ccccc1C(=O)OCC(=O)N1CCc2ccccc2C1)c1ccco1,"12.6 µM [rising, single point]"
6,CN1CCN(C2=C(Cl)C(=O)N(c3ccc(Cl)c(Cl)c3)C2=O)CC1,"12.6 µM [falling, partial curve]"
7,O=C(Cn1nnc(-c2ccccc2NC(=O)C2CC2)n1)NC1CCCCC1,"15.8 µM [falling, partial curve]"
8,CCOc1ccc(OCC)c(Nc2cc(C)nc3ncnn23)c1,"10 µM [rising, partial curve]"
9,CCC(C)NC(=O)Cn1c(=O)n(-c2ccccc2)c(=O)c2ccc(C(=O)NCc3ccco3)cc21 (stereo not drawn),"5.01 µM [rising, single point]"
10,O=C(CN1CCN(Cc2ccccc2)CC1)c1c[nH]c2ccccc12,"12.6 µM [falling, partial curve]"
11,COc1nc(NCc2ccc(Cl)cc2)nc(OC)n1,"0.00316 µM [falling, full curve, poor fit]"
12,CCOC(=O)c1sc2c(c1C)C(c1cccs1)C1=C(CCCC1=O)N2 (stereo not drawn),"6.31 µM [rising, partial curve]"
13,COCCCN1C(=O)C(O)=C(C(=O)c2ccco2)C1c1ccccc1 (stereo not drawn),"3.98 µM [falling, single point]"
14,CCN(CC)CCSc1nc(O)c(C(C)C)c(=O)[nH]1,"5.01 µM [rising, single point]"
15,CCN1CCN(c2nc(SC)nc3sc4c(c23)CC(C)(C)OC4)CC1,"31.6 µM [falling, single point]"
16,O=C(Cn1c(=O)oc2ccccc21)c1ccccc1,"5.01 µM [falling, single point]"
17,COc1cccc(NC(=O)N(Cc2cc3cc(C)cc(C)c3[nH]c2=O)CC2COCCO2)c1 (stereo not drawn),"5.01 µM [falling, single point]"
18,Cc1ccccc1-c1nc(CS(=O)CC(=O)NCCN2CCN(Cc3ccccc3)CC2)c(C)o1 (stereo not drawn),"0.00794 µM [falling, full curve, poor fit]"
19,Cc1cccc(C(=O)Nc2ccccc2C(=O)OCc2c(C)noc2C)c1,"12.6 µM [rising, partial curve]"
20,Nc1nc(CN2CCN(c3cccc(Cl)c3)CC2)nc(N2CCCc3ccccc32)n1,"15.8 µM [falling, single point]"
21,CCNc1nc(OCCNS(=O)(=O)c2cc(C)ccc2C)nc(N(C)C)n1,"10 µM [rising, single point]"
22,Cc1ccc2nc(CSc3nnc(-c4ccco4)n3-c3ccccc3)cc(=O)n2c1,"10 µM [rising, partial curve]"
23,COc1cccc(/C=N/n2c(SC)nnc2-c2ccccc2)c1OC,"3.16 µM [rising, full curve]"

row,SMILES,AC50
1,Cn1nnnc1SCC(=O)N1CCN(Cc2ccccc2)CC1,"12.6 µM [rising, single point]"
2,COc1cc(C(=O)Nc2nnc(-c3sccc3C)s2)cc(OC)c1OC,"5.01 µM [falling, partial curve]"
3,CCOC(=O)CN=C1CC(C)(C)CC2=C1Sc1ncnc(N(C)C)c1N2,"20 µM [rising, single point]"
4,COC(=O)c1c(-c2ccncc2)csc1NC(=O)c1ccoc1C,"0.0316 µM [rising, single point]"
5,N#Cc1c2c(c(N3CCN(c4ccccn4)CC3)n3c1nc1ccccc13)CCC2,"15.8 µM [rising, partial curve]"
6,COc1ccc2cc(CN(C(=O)Nc3ccccc3OC)C3CCCC3)c(=O)[nH]c2c1,"12.6 µM [rising, partial curve]"
7,COc1ccc(C)cc1Nc1cc(C)nc2nc(C)nn12,"12.6 µM [rising, partial curve]"
8,NC(=O)c1c(-c2ccccc2)oc2ccc(O)cc12,"10 µM [falling, partial curve, poor fit]"
9,CCOC(=O)C(Oc1ccc(=O)n(-c2ccccc2)n1)C(C)=O (stereo not drawn),"0.316 µM [rising, partial curve]"
10,C=CCn1c(=O)c(C(=O)Nc2ccccc2O)c(O)c2ccccc21,"15.8 µM [rising, single point]"
11,N#Cc1cc2c(nc1SCC(=O)Nc1nccs1)CCCCC2,"12.6 µM [rising, partial curve]"
12,N#CCCn1c(=O)c(-c2ccc(Cl)cc2)nc2cnc(N3CCOCC3)nc21,"10 µM [rising, partial curve]"
13,C[N+](C)(C)CCC(=O)c1cccc2ccccc12,"15.8 µM [falling, partial curve]"
14,O=C(NNS(=O)(=O)c1ccccc1)c1cccnc1,"0.0126 µM [rising, full curve, poor fit]"
15,N#Cc1c(N)nc(SC2CCCCC2=O)c(C#N)c1-c1ccco1 (stereo not drawn),"10 µM [rising, partial curve]"
16,COCCn1c(=O)c(-c2cc(F)cc(F)c2)nc2cnc(N3CCNCC3)nc21,"3.16 µM [rising, full curve]"
17,Nc1ccc(-c2nc3c(Cl)cc(N)cc3[nH]2)cc1,"20 µM [falling, single point]"
18,COCCOC(=O)c1c(C)oc2ccc(OC(=O)c3ccc4c(c3)OCO4)cc12,"1.26 µM [rising, partial curve]"
19,CC(C)C[C@H](NC(=O)NCc1ccccc1Cl)C(=O)O,"5.01 µM [falling, full curve]"
20,Fc1ccc2[nH]c3c(N4CCN(c5ccccc5)CC4)ncnc3c2c1,"10 µM [falling, partial curve]"
21,O=C(NCc1ccco1)c1cc2cc3ccc(Cl)cc3nc2o1,"0.631 µM [rising, partial curve]"
22,CCc1nc(N)c(C#N)c(-c2ccncc2)c1C,"12.6 µM [rising, partial curve]"
23,CC(=O)N1CCC(C(=O)Nc2nc(-c3ccccc3)ns2)CC1,"10 µM [rising, partial curve]"

# Some values from the results shown.
# Under AC50, CC(C)C[C@H](NC(=O)NCc1ccccc1Cl)C(=O)O shows 5.01 µM [falling, full curve]
# Under AC50, Nc1ccc(-c2nc3c(Cl)cc(N)cc3[nH]2)cc1 shows 20 µM [falling, single point]
# Under AC50, N#Cc1c(N)nc(SC2CCCCC2=O)c(C#N)c1-c1ccco1 (stereo not drawn) shows 10 µM [rising, partial curve]

# Remaining list, next part:

row,SMILES,AC50
1,COc1ccc2[nH]c(=O)c(CN(C(=O)c3ccccn3)C3CCCCC3)cc2c1,"7.94 µM [rising, partial curve]"
2,CCOP(=O)(c1c(F)c(F)c(F)c(F)c1F)C(O)c1ccccc1 (stereo not drawn),"5.01 µM [falling, partial curve]"
3,O=C(COC(=O)c1cccc(S(=O)(=O)N2CCc3ccccc3C2)c1)NCc1ccco1,"1.26 µM [falling, partial curve, poor fit]"
4,Cc1ccc(C(=O)NC2CCCc3ccccc32)o1 (stereo not drawn),"12.6 µM [falling, partial curve]"
5,CCCCOc1ccccc1-c1cc(C(=O)O)[nH]n1,"0.126 µM [falling, partial curve, poor fit]"
6,COc1cc(C(=O)Oc2c(CN3CCOCC3)cc(Cl)c3cccnc23)cc(OC)c1OC,"5.01 µM [rising, partial curve]"
7,CCOc1ccc2noc3c2c1C(=O)c1ccccc1-3,"10 µM [rising, partial curve]"
8,Clc1cccc(-c2nc3nc4ccccc4nc3n2Cc2ccco2)c1,"10 µM [rising, partial curve]"
9,CC1CCC(NC(=O)CN2C(=O)C3CCCN3c3ncc(Cl)cc32)CC1 (stereo not drawn),"10 µM [rising, partial curve]"
10,Cc1cc(NC(=O)CSc2nc3cc4c(cc3c(=O)n2CCc2ccccc2)OCO4)no1,"12.6 µM [rising, single point]"
11,CCOc1ccccc1N1CCN(Cc2ccc(OC)c(OC)c2)CC1,"0.398 µM [rising, full curve]"
12,COc1ccc(C(C)=O)cc1COC(=O)c1cc(C)oc1C,"12.6 µM [rising, partial curve]"
13,Nc1ncnc2c1nc(Br)n2[C@@H]1O[C@H]2COP(=O)(O)O[C@@H]2[C@H]1O,"25.1 µM [rising, partial curve]"
14,CC(C)OC(=O)C(C#N)c1nc2ccccc2nc1N1CCN(Cc2ccccc2)CC1 (stereo not drawn),"10 µM [rising, partial curve]"
15,COC(=O)c1ccc(C2C(C#N)=C(N)Oc3cc(C)n(C)c(=O)c32)cc1 (stereo not drawn),"15.8 µM [rising, single point]"
16,CCN(CC)CCN(CC)Cc1ccccc1Br,"1.26 µM [falling, partial curve]"
17,CN1CCc2c(sc(/N=C/c3ccco3)c2C(N)=O)C1,"10 µM [rising, single point]"
18,Cc1ccccc1-c1nc(CN2CCC(C(=O)NCCCN3CC(C)CC(C)C3)CC2)c(C)o1 (stereo not drawn),"3.16 µM [falling, full curve, poor fit]"
19,Cc1ccc(Cl)cc1N1CCN(Cc2nc3c(c(=O)[nH]c(=O)n3C)n2CCc2ccccc2)CC1,"0.02 µM [rising, full curve]"
20,O=c1c2ccccc2nc2c3ccccc3c(N3CCOCC3)nn12,"3.98 µM [rising, partial curve]"
21,CS(=O)(=O)Nc1cccc(-c2ccc3ncnc(N4CCNCC4)c3c2)c1,"7.94 µM [rising, partial curve]"
22,CC(C)Cc1cc(-c2ccco2)c(C#N)c(N)n1,"2 µM [rising, full curve]"
